Laboratory results: PubChem BioAssay AID1508587 (Peter MacCallum Cancer Centre, 2020)

Assay: 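Follow-up of vemurafenib sensitisers scored by lactate made per cell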 (follow-up of hits)
System: human WM266.4 melanoma cells with a BRAF V600 mutation
Reagent: single siRNA against human genes, 25 nM
Duration: 96 h
Treatment: vemurafenib 300 nM (about IC25), given 48 h after transfection for 48 h
Measurement: 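Per-cell lactate from absorbance divided by DAPI nucleus counts, compared with and without vemurafenib, relative to non-targeting siRNA, mean of 2 replicates; nuclear counts also give cell number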
Reading the numbers: lactate per cell, drug vs no drug: higher = less drug-induced drop in lactate per cell; lactate per cell with vemurafenib: higher = more lactate per cell under drug; lactate per cell without drug: higher = more lactate per cell without drug; cell growth with vemurafenib and cell growth without drug: higher = more cell growth over 48 h
Hit rule: 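Enhancer call for any duplex whose drug versus no-drug per-cell lactate ratio is below 0.55 (2 SD beneath non-targeting average); genes confirmed when at least 2 of their 4 duplexes qualify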
The deposit covers about 1,600 reagents; below is a random part of them. 623 of them (39%) were called active. 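Calls are for each duplex; lactate ratios contain extreme outliers.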 Unmarked entries are inactive.

The opening 3 entries, to show the layout:
| gene | PubChem SID | lactate per cell, drug vs no drug | lactate per cell with vemurafenib | lactate per cell without drug | cell growth with vemurafenib | cell growth without drug |
| --- | --- | --- | --- | --- | --- | --- |
| RPL36AL | SID134260701 | 0.56 | 0.52 | 0.63 | 0.55 | 0.96 |
| RPL36AL | SID134260702 | 0.76 | 1.1 | 1.01 | -0.02 | 0.09 |
| RPL36AL | SID134260703 | 1.31 | 3.93 | 2 | -0.05 | 0.06 |

The listing, from the start:
| gene | PubChem SID | lactate per cell, drug vs no drug | lactate per cell with vemurafenib | lactate per cell without drug | cell growth with vemurafenib | cell growth without drug |
| --- | --- | --- | --- | --- | --- | --- |
| RPL36AL | SID134260701 | 0.56 | 0.52 | 0.63 | 0.55 | 0.96 |
| RPL36AL | SID134260702 | 0.76 | 1.1 | 1.01 | -0.02 | 0.09 |
| RPL36AL | SID134260703 | 1.31 | 3.93 | 2 | -0.05 | 0.06 |
| RPL36AL | SID134260704 | 0.4 (active) | 0.94 | 1.6 | 0.04 | 0.06 |
| OR1F1 | SID134244329 | 0.42 (active) | 1.45 | 2.58 | -0.11 | -0.01 |
| OR1F1 | SID134244331 | 1.25 | 5.13 | 2.91 | -0.19 | -0.05 |
| OR1F1 | SID134244332 | 0.6 | 0.88 | 1.06 | 0.66 | 0.8 |
| OR1F1 | SID152147092 | 0.7 | 0.98 | 1.03 | 0.85 | 0.96 |
| FOLH1 | SID134234958 | 0.58 | 2.86 | 2.89 | 0.11 | 0.09 |
| FOLH1 | SID134234959 | 0.4 (active) | 1.2 | 1.78 | 0.36 | 0.35 |
| FOLH1 | SID134234960 | 0.52 (active) | 0.68 | 0.77 | 0.41 | 0.52 |
| FOLH1 | SID135611922 | 0.68 | 0.94 | 0.8 | 0.14 | 0.47 |
| INPP4B | SID134253197 | 0.57 | 1.97 | 2.23 | 0.15 | 0.05 |
| INPP4B | SID134253198 | 0.6 | 1.03 | 1.09 | 0.71 | 0.61 |
| INPP4B | SID134253199 | 0.66 | 1.29 | 1.26 | 0.71 | 0.78 |
| INPP4B | SID134253200 | 0.42 (active) | 0.6 | 0.9 | 0.35 | 0.54 |
| FSAF1 | SID134270045 | 0.65 | 3.53 | 3.42 | -0.07 | 0.05 |
| FSAF1 | SID134270046 | 0.59 | 0.86 | 0.92 | 1.14 | 1.17 |
| FSAF1 | SID134270047 | 0.58 | 1.73 | 1.87 | -0.06 | 0.02 |
| FSAF1 | SID134270048 | 0.6 | 0.95 | 0.99 | 0.88 | 0.99 |
| ADGRG6 | SID134233661 | 0.48 (active) | 0.8 | 1.06 | 0.51 | 0.49 |
| ADGRG6 | SID134233663 | 0.6 | 1.51 | 1.6 | 0.77 | 0.52 |
| ADGRG6 | SID134233664 | 0.64 | 1.42 | 1.39 | 0.3 | 0.38 |
| ADGRG6 | SID135611821 | 0.62 | 0.92 | 0.94 | 1.09 | 1.04 |
| BTBD10 | SID134277173 | 0.53 (active) | 1.46 | 1.58 | 0.15 | 0.3 |
| BTBD10 | SID134277174 | 0.42 (active) | 0.78 | 1.1 | 0.29 | 0.43 |
| BTBD10 | SID134277175 | 0.58 | 1.04 | 1.05 | 0.22 | 0.19 |
| BTBD10 | SID134277176 | 0.49 (active) | 1.37 | 1.66 | 0.73 | 0.38 |
| CRIP2 | SID134232837 | 0.57 | 0.78 | 0.86 | 0.95 | 1.1 |
| CRIP2 | SID134232838 | 0.3 (active) | 0.36 | 0.84 | 0.17 | 0.28 |
| CRIP2 | SID134232839 | 0.45 (active) | 2.67 | 3.83 | 0.01 | -0.06 |
| CRIP2 | SID134232840 | 0.41 (active) | 0.52 | 0.78 | 0.32 | 0.56 |
| SELENBP1 | SID134260497 | 0.62 | 3.02 | 3.34 | 0.19 | 0.05 |
| SELENBP1 | SID134260498 | 0.66 | 1.69 | 1.72 | 0.13 | 0.13 |
| SELENBP1 | SID134260499 | -0.74 (active) | -0.26 | 0.24 | 0.31 | 0.35 |
| SELENBP1 | SID152149343 | 0.6 | 1.23 | 1.38 | 0.86 | 0.68 |
